Results published in US20240076387A1.
These are yes or no findings as the source states them, for the method shown. Some results given as binding are weak or reduced against the parent protein; the word gives no strength.

Amino acid sequences for entries named in this document (tags omitted). A change or cut given only in a name is not applied to a line headed by its entry.
UniProt P17948: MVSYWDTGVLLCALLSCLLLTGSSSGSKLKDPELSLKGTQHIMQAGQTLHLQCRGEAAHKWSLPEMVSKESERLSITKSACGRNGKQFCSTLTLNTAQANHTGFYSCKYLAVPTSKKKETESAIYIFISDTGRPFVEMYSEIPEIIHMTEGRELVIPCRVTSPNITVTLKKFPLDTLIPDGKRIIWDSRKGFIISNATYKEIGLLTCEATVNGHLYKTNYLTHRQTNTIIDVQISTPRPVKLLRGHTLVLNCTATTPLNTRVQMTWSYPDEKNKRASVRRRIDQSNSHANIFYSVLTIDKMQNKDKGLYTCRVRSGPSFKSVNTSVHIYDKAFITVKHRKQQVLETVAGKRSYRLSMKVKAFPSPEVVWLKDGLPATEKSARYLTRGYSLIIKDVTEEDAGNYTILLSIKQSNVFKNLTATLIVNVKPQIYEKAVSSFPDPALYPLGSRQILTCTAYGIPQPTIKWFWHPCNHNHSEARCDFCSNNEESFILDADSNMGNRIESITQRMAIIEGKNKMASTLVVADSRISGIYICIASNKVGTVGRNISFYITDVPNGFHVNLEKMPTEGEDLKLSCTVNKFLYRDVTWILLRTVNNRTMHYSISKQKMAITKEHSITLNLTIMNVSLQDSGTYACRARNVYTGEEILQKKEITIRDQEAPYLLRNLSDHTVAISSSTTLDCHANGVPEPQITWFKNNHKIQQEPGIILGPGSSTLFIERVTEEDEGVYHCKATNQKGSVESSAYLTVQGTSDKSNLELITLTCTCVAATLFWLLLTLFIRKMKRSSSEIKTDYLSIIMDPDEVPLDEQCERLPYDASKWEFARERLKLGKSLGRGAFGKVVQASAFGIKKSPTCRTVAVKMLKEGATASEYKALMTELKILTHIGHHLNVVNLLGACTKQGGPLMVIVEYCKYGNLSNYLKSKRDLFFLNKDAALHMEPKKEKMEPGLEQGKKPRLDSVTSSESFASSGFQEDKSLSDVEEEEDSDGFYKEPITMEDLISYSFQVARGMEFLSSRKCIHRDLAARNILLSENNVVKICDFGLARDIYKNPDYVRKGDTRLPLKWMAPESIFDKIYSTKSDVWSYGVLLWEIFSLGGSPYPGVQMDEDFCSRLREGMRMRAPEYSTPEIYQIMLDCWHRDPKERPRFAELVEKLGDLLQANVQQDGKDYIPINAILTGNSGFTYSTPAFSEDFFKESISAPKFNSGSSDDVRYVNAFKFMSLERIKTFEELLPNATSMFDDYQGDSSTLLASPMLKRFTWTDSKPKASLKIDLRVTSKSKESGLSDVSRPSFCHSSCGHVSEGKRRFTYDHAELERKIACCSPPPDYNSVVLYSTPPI

Molecular target: recombinant human soluble Flt-1 (human) (UniProt P17948)
Experiment: size exclusion chromatography of the mixture

binding: binds
B1: 21B3 (antibody, V domains shown)
VH: ELQLVESGGGLVQPGGSLRLSCAASGFTFRDYSMSWVRQAPGKGLEWVSAISWNGDSTYYAESMKGRFTISRDNAKNTLYLQMNSLKSEDTAVYYCAKSWATPIESLYYYGMDYWGKGTLVTVSS
VL: SYELTQSPSVSVALRQTAKITCGGNNIGSQTAQWYQQKPGQAPVLVIYANNRRPSGIPERFSGSKSGNTATLTISGAQAEDEADYYCQVWDGSTQAIVFGGGTHLTVL
